The source of these data is article PMC10937794.

Protein sequences, listed by entry. Tags and fused reporters are not part of them.
UniProt Q9H6I2: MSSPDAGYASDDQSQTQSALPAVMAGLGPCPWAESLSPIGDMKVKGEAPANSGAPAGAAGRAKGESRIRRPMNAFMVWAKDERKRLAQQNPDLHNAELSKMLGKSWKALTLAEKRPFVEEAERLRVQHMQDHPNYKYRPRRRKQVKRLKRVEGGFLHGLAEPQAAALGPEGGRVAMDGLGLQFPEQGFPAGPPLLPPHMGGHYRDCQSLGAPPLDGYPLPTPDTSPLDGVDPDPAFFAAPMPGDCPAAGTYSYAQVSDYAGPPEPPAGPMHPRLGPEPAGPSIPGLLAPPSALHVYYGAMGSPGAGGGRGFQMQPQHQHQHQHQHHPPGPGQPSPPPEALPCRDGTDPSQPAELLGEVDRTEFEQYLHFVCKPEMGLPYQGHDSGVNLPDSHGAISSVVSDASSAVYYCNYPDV
UniProt Q9R0P9: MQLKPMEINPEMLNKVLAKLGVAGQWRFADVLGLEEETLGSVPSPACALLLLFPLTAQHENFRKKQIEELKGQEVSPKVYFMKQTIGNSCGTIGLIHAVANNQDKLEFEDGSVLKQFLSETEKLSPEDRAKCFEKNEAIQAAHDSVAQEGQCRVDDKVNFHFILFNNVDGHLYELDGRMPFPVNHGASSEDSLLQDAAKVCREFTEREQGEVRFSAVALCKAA

These are yes or no findings as the source states them, for the method shown. In cells and extracts the contact can be indirect. These calls come from enrichment with a bait or labelling near it, and not all partners need be listed.

For this assay, the target named is Flag-Sox17 expressed in vascular endothelial cells (UniProt Q9H6I2). The experiment in a line: affinity purification with mass spectrometry; Flag-Sox17 expressed in vascular endothelial cells; whole protein lysate on anti-Flag magnetic beads, eluted with 3 x Flag peptide, SDS-PAGE, silver staining and MS.

For “Ubiquitin C-terminal hydrolase L1 (UCHL1), endogenous in endothelial cells (from UniProt Q9R0P9 1-223) (enzyme)”, the binding result was “binds”.
